From the supplement of paper PMC8728848
Some of the results follow.

What was measured:
Test in all cases: glycan array binding signal (z-score within array); higher = stronger binding
Conditions in all cases: glycan notation: IUPAC condensed, linker removed
[1] = target: Gal(b1-4)GlcNAc(b1-2)Man(a1-6)[Man(a1-3)]Man(b1-4)GlcNAc(b1-4)GlcNAc
Procedure, shortened: (§1)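 Columns mapping to the same glycan were averaged after glycan names were converted to IUPAC-condensed notation. The data come from 3228 arrays in the Consortium for Functional Glycomics database, limited to those with an available protein sequence. Binding is reported as a within-array Z-score averaged across arrays of one protein sequence and across linkers.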

[2] = target: Gal(b1-4)GlcNAc(b1-2)[Gal(b1-4)GlcNAc(b1-4)]Man(a1-3)[Gal(b1-4)GlcNAc(b1-2)Man(a1-6)]Man(b1-4)GlcNAc(b1-4)GlcNAc
Procedure, shortened: as §1

[3] = target: Gal(b1-4)GlcNAc(b1-2)[Gal(b1-4)GlcNAc(b1-4)]Man(a1-3)[Gal(b1-4)GlcNAc(b1-2)[Gal(b1-4)GlcNAc(b1-6)]Man(a1-6)]Man(b1-4)GlcNAc(b1-4)GlcNAc
Procedure, shortened: as §1

[4] = target: Gal(b1-4)GlcNAc(b1-2)[Gal(b1-4)GlcNAc(b1-4)]Man(a1-3)[GlcNAc(b1-4)][Gal(b1-4)GlcNAc(b1-2)Man(a1-6)]Man(b1-4)GlcNAc(b1-4)GlcNAc
Procedure, shortened: as §1

[5] = target: Gal(b1-4)GlcNAc(b1-2)[Gal(b1-4)GlcNAc(b1-4)]Man(a1-3)[GlcNAc(b1-4)][Gal(b1-4)GlcNAc(b1-2)[Gal(b1-4)GlcNAc(b1-6)]Man(a1-6)]Man(b1-4)GlcNAc(b1-4)GlcNAc
Procedure, shortened: as §1

[6] = target: Gal(b1-4)GlcNAc(b1-2)[Gal(b1-4)GlcNAc(b1-6)]Man(a1-6)[Gal(b1-4)GlcNAc(b1-2)Man(a1-3)]Man(b1-4)GlcNAc(b1-4)GlcNAc
Procedure, shortened: as §1

[7] = target: Gal(b1-4)GlcNAc(b1-2)[Gal(b1-4)GlcNAc(b1-6)]Man(a1-6)[Gal(b1-4)GlcNAc(b1-2)Man(a1-3)]Man(b1-4)GlcNAc(b1-4)[Fuc(a1-6)]GlcNAc
Procedure, shortened: as §1

[8] = target: Gal(b1-4)GlcNAc(b1-2)[Gal(b1-4)GlcNAc(b1-6)]Man(a1-6)[GlcNAc(b1-4)][Gal(b1-4)GlcNAc(b1-2)Man(a1-3)]Man(b1-4)GlcNAc(b1-4)GlcNAc
Procedure, shortened: as §1

[9] = target: Gal(b1-4)GlcNAc(b1-2)[Gal(b1-4)GlcNAc(b1-6)]Man(a1-6)[GlcNAc(b1-4)][Gal(b1-4)GlcNAc(b1-2)[Gal(b1-4)GlcNAc(b1-4)]Man(a1-3)]Man(b1-4)GlcNAc(b1-4)[Fuc(a1-6)]GlcNAc
Procedure, shortened: as §1

[10] = target: Gal(b1-4)GlcNAc(b1-3)Gal(b1-3)GalNAc
Procedure, shortened: as §1

[11] = target: Gal(b1-4)GlcNAc(b1-3)Gal(b1-3)GlcNAc
Procedure, shortened: as §1

[12] = target: Gal(b1-4)GlcNAc(b1-3)Gal(b1-4)Glc
Procedure, shortened: as §1

[13] = target: Gal(b1-4)GlcNAc(b1-3)Gal(b1-4)GlcNAc
Procedure, shortened: as §1

[14] = target: Gal(b1-4)GlcNAc(b1-3)Gal(b1-4)GlcNAc(b1-2)Man(a1-3)[Gal(b1-4)GlcNAc(b1-3)Gal(b1-4)GlcNAc(b1-2)Man(a1-6)]Man(b1-4)GlcNAc(b1-4)GlcNAc
Procedure, shortened: as §1

[15] = target: Gal(b1-4)GlcNAc(b1-3)Gal(b1-4)GlcNAc(b1-2)Man(a1-3)[Gal(b1-4)GlcNAc(b1-3)Gal(b1-4)GlcNAc(b1-2)Man(a1-6)]Man(b1-4)GlcNAc(b1-4)[Fuc(a1-6)]GlcNAc
Procedure, shortened: as §1

[16] = target: Gal(b1-4)GlcNAc(b1-3)Gal(b1-4)GlcNAc(b1-2)[Gal(b1-4)GlcNAc(b1-3)Gal(b1-4)GlcNAc(b1-6)]Man(a1-6)[Gal(b1-4)GlcNAc(b1-3)Gal(b1-4)GlcNAc(b1-2)Man(a1-3)]Man(b1-4)GlcNAc(b1-4)GlcNAc
Procedure, shortened: as §1

[17] = target: Gal(b1-4)GlcNAc(b1-3)Gal(b1-4)GlcNAc(b1-2)[Gal(b1-4)GlcNAc(b1-3)Gal(b1-4)GlcNAc(b1-6)]Man(a1-6)[Gal(b1-4)GlcNAc(b1-3)Gal(b1-4)GlcNAc(b1-2)Man(a1-3)]Man(b1-4)GlcNAc(b1-4)[Fuc(a1-6)]GlcNAc
Procedure, shortened: as §1

[18] = target: Gal(b1-4)GlcNAc(b1-3)Gal(b1-4)GlcNAc(b1-3)Gal(b1-4)GlcNAc
Procedure, shortened: as §1

B1: HopZSSI-T (Helicobacter pylori), B5Z6D0 (protein)
chain: MGSSHHHHHHSSGLVPRGSHMENLYFQGEDNGFFISAGYQIGEAAQMVKNTGELKKLSDTYENLSNLLTNFNNLNQAVTNASSPSEINAAIDNLKANTQGLTGEKTNSPAYQAVYLALNAAVGLWNVIAYNVQCGPGNSSQQSVTFEGQPGHNSSSINCNLTGYNNGVSGPLSIDNFKQLNQAYQVLQQALKQGVPVLNNTNQKIEVKVTTQTNGQSSKETTTTTTTNDAQTLLQEASKMIDVLTTNCPWVNHNPGQNGGAPWGLIRQECVSGFATEFSAVTSMIKNAQEIVTQAQSLNANQNNQNAPQDFNPYTSADRAFAQNMLNHAQAQAKILELADQMKKDLNTIPSQFITNYLAACRIDGTTPSQGVTNNTWGAGCAYVEETITALNNSLAHFGTQAEQIKQSELLARTILDFRGSLSTLNSTYNSITTTASNTPNSPFLKNLISQSTNPNNPGGLQAVYQVNQSAYSQLLSATQELGHNPFRRIGLISSQT
glycan array binding signal (z-score) [1]: -0.803
glycan array binding signal (z-score) [2]: -0.209
glycan array binding signal (z-score) [3]: -0.906
glycan array binding signal (z-score) [4]: 0.227
glycan array binding signal (z-score) [5]: -0.23
glycan array binding signal (z-score) [6]: -0.279
glycan array binding signal (z-score) [7]: -0.065
glycan array binding signal (z-score) [8]: -0.374
glycan array binding signal (z-score) [9]: 0.577
glycan array binding signal (z-score) [10]: 0.283
glycan array binding signal (z-score) [11]: 0.233
glycan array binding signal (z-score) [12]: -0.373
glycan array binding signal (z-score) [13]: -0.343
glycan array binding signal (z-score) [14]: 0.655
glycan array binding signal (z-score) [15]: -0.305
glycan array binding signal (z-score) [16]: -0.035
glycan array binding signal (z-score) [17]: 0.605
glycan array binding signal (z-score) [18]: 0.651
